PubChem BioAssay AID445 (National Center for Advancing Translational Sciences (NCATS), 2006)
This is one part of the list. These are further read-outs of the screen, such as a control signal, another cell line or another target. No call is given for them. Compounds called inactive in the main read-out are mostly missing here. Words in brackets tell the shape of the fitted curve; partial curves, single points and poor fits give uncertain potencies.

test: IkB Signaling; details: ABC-DLBCL IkBa-CBG/CBR dual luciferase ratio (green luciferase fused to IkBa over red control in OCI-Ly3 lymphoma cells), 4 h; measured here: control luc red channel unless noted
Summary of the method: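 In this assay, an IκBα–CBG68 fusion accumulates when IKK-driven degradation is blocked; native CBR normalizes for cell number. OCI-Ly3 cells were treated 4 h with compound and doxycycline, then green and red light read after Chroma-Glo addition.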

For COc1ccc(C)cc1NC(=O)CSc1nc(=O)n(Cc2ccco2)c2c1CCC2, which AC50 is on record?
The AC50 was 7.94 µM [falling, partial curve].

With CCN(CC)CC(=O)Nc1c(Br)ccc2c1OCO2 as the compound, how does the AC50 read?
The AC50 was 3.98 µM [falling, partial curve].

For Cc1ccc(-n2ncc3c(NCCCN(C)C)ncnc32)cc1Cl, which AC50 is on record?
The AC50 was 20 µM [rising, partial curve].

For COc1ccc(Nc2ncc3c(n2)CCN(Cc2sccc2C)C3)c(OC)c1, which AC50 is on record?
Its AC50 is 31.6 µM [falling, single point].

Which AC50 does the source give for COc1ccc(OC)c(-c2cc(C(=O)Nc3c(C)nn(Cc4ccc(C)cc4)c3C)no2)c1 here?
Its AC50 is 15.8 µM [falling, single point].

For COc1ccc(C2Sc3nncn3N2Cc2ccc(C#N)cc2)cc1 (centres undefined), which AC50 is on record?
The AC50 was 10 µM [falling, partial curve].

Which AC50 does the source give for COc1ccc(C(CNC(=O)c2oc3cc(Br)ccc3c2C)N2CCCCC2)cc1 (centres undefined) here?
Its AC50 is 39.8 µM [falling, single point].

Which AC50 does the source give for Cc1ccc(NC(=O)c2c(C)oc3ccc(O)c(CN4CCN(Cc5ccccc5)CC4)c23)cc1 here?
Its AC50 is 15.8 µM [falling, partial curve].

With CCn1nnc(NC(=O)c2cccc(-c3cc4ccccc4oc3=O)c2)n1 as the compound, how does the AC50 read?
Its AC50 is 15.8 µM [falling, partial curve].

For Cc1ccc(CN2CCC(CNC(=O)c3cnn(-c4ccc(C)cc4)c3C3CCN(C(=O)OC(C)(C)C)CC3)CC2)cc1, which AC50 is on record?
The AC50 was 7.94 µM [falling, full curve].

Which AC50 does the source give for Cc1ccc(S(=O)(=O)N(CC(=O)Nc2cccnc2)c2cc(Cl)ccc2C)cc1 here?
Its AC50 is 20 µM [falling, partial curve].

Which AC50 does the source give for COc1ccc(NC(=O)CC2C(=O)N(c3ccccc3)C(=O)N2CCc2sccc2C)cc1 (centres undefined) here?
The AC50 was 39.8 µM [falling, single point].

With Brc1ccc(-c2nn3c(-c4ccccn4)nnc3s2)o1 as the compound, how does the AC50 read?
Its AC50 is 15.8 µM [falling, partial curve].

Which AC50 does the source give for CCN(CC)S(=O)(=O)c1cc(-c2ccc(=O)n(C(C)C(=O)Nc3cccc(C#N)c3)n2)ccc1C (centres undefined) here?
The AC50 was 31.6 µM [falling, single point].

Which AC50 does the source give for Cc1cc(C)cc(N(CC(=O)Nc2c(C)cc(C)cc2C)S(=O)(=O)c2c(C)nn(C)c2C)c1 here?
Its AC50 is 25.1 µM [falling, partial curve].

Which AC50 does the source give for COc1ccc(C(=O)Nc2nc3c(s2)Cc2c(Br)ccc(OC)c2-3)cc1OC here?
The AC50 was 6.31 µM [falling, partial curve].

Which AC50 does the source give for COc1ccc(-c2noc(CSc3nnc(Cc4ccccc4)n3-c3ccc(F)cc3)n2)cc1 here?
Its AC50 is 15.8 µM [falling, partial curve].

Which AC50 does the source give for COc1ccc(CNC(=O)CCCn2ccc3cc(S(=O)(=O)N4CCCC4)ccc32)cc1 here?
The AC50 was 25.1 µM [falling, single point].

Which AC50 does the source give for CC(C)(C)n1nc2c(c1NC(=O)COc1ccc(Cl)cc1)CSC2 here?
The AC50 was 15.8 µM [falling, partial curve].

Which AC50 does the source give for COc1ccc(-c2nnn3c2nc(NCCc2ccc(OC)c(OC)c2)c2ccccc23)cc1 here?
The AC50 was 0.631 µM [falling, full curve].

With Cc1ccccc1NC(=O)c1c(NC(=O)c2ccccc2F)sc2c1CCC(C)C2 (centres undefined) as the compound, how does the AC50 read?
The AC50 was 3.98 µM [falling, full curve].

For CCCCN1C(=O)c2[nH]nc(-c3ccccc3O)c2C1c1ccc(OCc2ccccc2)c(OC)c1 (centres undefined), which AC50 is on record?
Its AC50 is 20 µM [falling, partial curve].

For COc1ccc(Cn2ccc3nc(C)c(C(=O)N4CCN(c5ccc(F)cc5)CC4)cc3c2=O)cc1, which AC50 is on record?
Its AC50 is 25.1 µM [falling, partial curve].

For Cc1ccc(Sc2c(C)nn(C(C)(C)C)c2OC(=O)CC(C)C)cc1, which AC50 is on record?
Its AC50 is 39.8 µM [falling, partial curve, poor fit].

For CCOC(=O)c1cccc(NC(=O)CCc2c(C)nn(-c3ccc(N4CCCCC4)nn3)c2C)c1, which AC50 is on record?
Its AC50 is 39.8 µM [falling, single point].

For Cc1cccc(NC(=O)C2CCCN(C(=O)NC3CCCCC3)C2)c1C (centres undefined), which AC50 is on record?
Its AC50 is 5.01 µM [rising, partial curve] [measured here: IkB-luc green channel].

Which AC50 does the source give for CC(C)CCNc1nc2c(-c3ccccc3)nnn2c2ccccc12 here?
Its AC50 is 25.1 µM [falling, single point].

For CCOc1ccc(CNC(=O)c2ccc(CSc3nc4ccncc4n3Cc3ccc(F)cc3)cc2)cc1, which AC50 is on record?
Its AC50 is 31.6 µM [falling, single point].

For CCCOc1ccc2c3c(c(=O)oc2c1OCCC)CCC3, which AC50 is on record?
Its AC50 is 20 µM [falling, partial curve].

Which AC50 does the source give for COc1cccc(NC(=O)c2oc3ccccc3c2NC(=O)c2ccccc2C)c1 here?
The AC50 was 15.8 µM [falling, single point].

With COc1cccc(C(=O)Nc2ccc3nc(N4CCOCC4)cc(C)c3c2)c1 as the compound, how does the AC50 read?
The AC50 was 15.8 µM [falling, partial curve].

Which AC50 does the source give for Cc1nn(-c2ccccc2)c2nc(C3CC3)cc(C(=O)Nc3cccc(F)c3)c12 here?
Its AC50 is 12.6 µM [falling, partial curve].

With COc1ccc(C(=O)Nc2ccc3nc(SCC(=O)N4CCCc5ccccc54)sc3c2)cc1 as the compound, how does the AC50 read?
The AC50 was 2 µM [falling, partial curve].

With CCN(CC)C(=O)c1sc2c(c1C)c(=O)n(-c1ccc(Cl)c(Cl)c1)c(=O)n2Cc1cc(=O)n2c(C)cccc2n1 as the compound, how does the AC50 read?
Its AC50 is 0.0126 µM [rising, full curve, poor fit].

Which AC50 does the source give for COc1ccc(CC(=O)Nc2oc(-c3ccccc3)c(-c3ccccc3)c2C#N)cc1OC here?
Its AC50 is 3.16 µM [falling, full curve].

With O=C(NCCc1ccccn1)c1n[nH]c(=O)c2ccccc12 as the compound, how does the AC50 read?
The AC50 was 39.8 µM [falling, single point].

For Cc1ccc(-c2nc(C)c(CCNS(=O)(=O)c3ccccc3F)s2)cc1, which AC50 is on record?
The AC50 was 0.251 µM [falling, full curve, poor fit].

With COc1cc(NS(C)(=O)=O)ccc1Nc1c2ccccc2nc2ccccc12 as the compound, how does the AC50 read?
The AC50 was 20 µM [falling, partial curve] [measured here: IkB-luc green channel].

Which AC50 does the source give for CN1C(=O)C(C)(C)c2cc(S(=O)(=O)NCc3ccc(C(=O)Nc4ccc(Cl)cc4)cc3)ccc21 here?
Its AC50 is 1.58 µM [falling, full curve].
